The values that follow are results of earlier work, collected in paper PMC3004914, “Classification of Drugs Based on Properties of Sodium Channel Inhibition: A Comparative Automated Patch-Clamp Study” (PLoS ONE, 2010).

SMILES strings stand for the structures. Where two headings read alike, the source gives them in different places.

The conditions of this series: human plasma, cited from earlier work.

For the compound `CCN(CC)CC(=O)Nc1c(C)cccc1C` [LID, Lidocaine], the plasma conc. (as printed in each cell) is 3.5 [44] µg/ml and the plasma conc. (as printed in the µg/ml cell) was 12.925 µM.
